Results as given in article PMC6836472.
Results are given in words; binding and its absence hold for the method and conditions named. In cells and extracts the contact can be indirect. Some entries that bind do so weakly or less than the wild type.

Sequences of proteins named here, by UniProt entry; tags and fusion partners are left off.
UniProt O14744: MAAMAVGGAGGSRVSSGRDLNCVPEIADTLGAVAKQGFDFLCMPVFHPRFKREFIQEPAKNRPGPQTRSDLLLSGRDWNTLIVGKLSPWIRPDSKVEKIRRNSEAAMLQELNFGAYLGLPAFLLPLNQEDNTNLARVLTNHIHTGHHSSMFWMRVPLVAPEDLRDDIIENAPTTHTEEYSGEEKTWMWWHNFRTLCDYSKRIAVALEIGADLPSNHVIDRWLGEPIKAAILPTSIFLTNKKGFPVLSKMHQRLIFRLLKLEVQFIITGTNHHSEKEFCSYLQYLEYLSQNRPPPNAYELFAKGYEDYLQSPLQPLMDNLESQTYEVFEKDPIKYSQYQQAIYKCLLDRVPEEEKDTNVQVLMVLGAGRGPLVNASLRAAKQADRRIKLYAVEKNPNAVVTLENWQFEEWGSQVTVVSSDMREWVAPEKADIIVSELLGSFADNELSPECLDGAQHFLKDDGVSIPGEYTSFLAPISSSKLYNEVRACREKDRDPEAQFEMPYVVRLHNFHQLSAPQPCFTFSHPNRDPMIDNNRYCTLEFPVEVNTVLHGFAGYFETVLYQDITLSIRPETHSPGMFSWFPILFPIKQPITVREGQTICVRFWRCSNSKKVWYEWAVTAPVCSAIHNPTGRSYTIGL
UniProt P01106: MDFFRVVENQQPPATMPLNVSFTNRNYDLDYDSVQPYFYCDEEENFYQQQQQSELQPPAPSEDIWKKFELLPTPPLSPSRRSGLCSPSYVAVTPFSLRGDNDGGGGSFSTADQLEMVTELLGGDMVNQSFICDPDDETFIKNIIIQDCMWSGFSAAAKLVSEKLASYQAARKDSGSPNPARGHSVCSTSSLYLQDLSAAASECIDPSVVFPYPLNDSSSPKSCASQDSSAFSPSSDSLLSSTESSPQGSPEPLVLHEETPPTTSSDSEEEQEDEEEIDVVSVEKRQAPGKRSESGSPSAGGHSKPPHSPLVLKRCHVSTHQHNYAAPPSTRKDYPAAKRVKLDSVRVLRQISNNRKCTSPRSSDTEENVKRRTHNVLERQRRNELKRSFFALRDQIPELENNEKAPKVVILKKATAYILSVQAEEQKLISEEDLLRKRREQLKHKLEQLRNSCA

Key:
[1] = target: protein arginine methyltransferase 5 (human (endogenous in HD-MB03)) (UniProt O14744); test: co-IP; 500 ug HD-MB03 protein lysate precleared with protein A-Sepharose; 8 ug MYC or PRMT5 antibody (control IgG) at 4 °C overnight; captured on protein A-Sepharose, washed with PBS; western blotting for the other protein
[2] = target: MYC (v-myc avian myelocytomatosis viral oncogene homolog) (human (endogenous in HD-MB03)) (UniProt P01106); test: as above

Substance | binding [1] | binding [2]
MYC (v-myc avian myelocytomatosis viral oncogene homolog) (from UniProt P01106 1-454) | binds | –
protein arginine methyltransferase 5 (from UniProt O14744 1-637) (enzyme) | – | binds
